# Data from PMC5991658.
# Target: T1, ZIPT-7.1 lacking the last 21 C-terminal amino acids (split-ubiquitin bait) (C. elegans) (UniProt Q9XUC4)
# T1 sequence: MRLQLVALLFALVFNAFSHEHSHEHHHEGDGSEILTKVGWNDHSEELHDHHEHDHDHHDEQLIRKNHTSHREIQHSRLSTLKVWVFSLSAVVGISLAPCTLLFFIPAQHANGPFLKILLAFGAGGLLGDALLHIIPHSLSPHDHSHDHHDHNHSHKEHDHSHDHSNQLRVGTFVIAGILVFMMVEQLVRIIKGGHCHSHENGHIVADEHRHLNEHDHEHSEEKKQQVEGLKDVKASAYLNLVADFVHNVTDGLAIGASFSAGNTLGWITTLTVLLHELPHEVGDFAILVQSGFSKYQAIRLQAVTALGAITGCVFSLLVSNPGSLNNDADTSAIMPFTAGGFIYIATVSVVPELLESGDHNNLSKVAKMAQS
# Experiment: two-hybrid; split-ubiquitin yeast two-hybrid (DUALmembrane kit, Dualsystems Biotech) in yeast NMY51; ZIPT-7.1 on the bait plasmid pBT3-STE, other proteins on prey plasmids; growth on synthetic medium lacking Trp, Leu, His and Ade at three plating dilutions
row,Substance,binding
1,SPE-43 (C. elegans),no binding
2,SPE-19 (C. elegans),no binding

# No constants are given. Whether binding was seen depends on the method and setting.
